This experiment addresses T1, OsCCAMK (UniProt Q6AVM3 1-516, limits assumed).
T1 construct: Named only in the discussion; The yeast two-hybrid construct is not described
T1 sequence (looked up): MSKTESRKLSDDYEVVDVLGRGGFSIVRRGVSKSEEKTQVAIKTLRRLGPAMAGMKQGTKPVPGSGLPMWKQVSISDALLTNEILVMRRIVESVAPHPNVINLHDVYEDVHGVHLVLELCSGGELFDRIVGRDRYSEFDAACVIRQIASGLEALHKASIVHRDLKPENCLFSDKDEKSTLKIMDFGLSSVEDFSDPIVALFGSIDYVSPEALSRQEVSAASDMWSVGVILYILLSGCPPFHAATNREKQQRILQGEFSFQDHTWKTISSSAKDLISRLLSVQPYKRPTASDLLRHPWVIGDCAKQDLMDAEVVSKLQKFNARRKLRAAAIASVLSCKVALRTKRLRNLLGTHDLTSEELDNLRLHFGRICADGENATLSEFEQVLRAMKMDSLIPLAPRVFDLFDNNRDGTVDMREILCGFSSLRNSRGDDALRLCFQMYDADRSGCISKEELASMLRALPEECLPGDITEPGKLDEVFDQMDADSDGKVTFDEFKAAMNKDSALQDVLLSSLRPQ
Nature of the experiment: yeast two-hybrid.

Experimental findings from patent publication US20240200090A1 (CAS CENTER FOR EXCELLENCE IN MOLECULAR PLANT SCIENCES, published 2024) are described below.

B1: phosphate starvation response factor PHR2 (OsPHR2) (other)
chain: MERISTNQLYNSGIPVTVPSPLPAIPATLDENIPRIPDGQNVPRERELRSTPMPPHQNQSTVAPLHGHFQSSTGSVGPLRSSQAIRFSSVSSNEQYTNANPYNSQPPSSGSSSTLNYGSQYGGFEPSLTDFPRDAGPTWCPDPVDGLLGYTDDVPAGNNLTENSSIAAGDELAKQSEWWNDFMNYDWKDIDNTACTETQPQVGPAAQSSVAVHQSAAQQSVSSQSGEPSAVAIPSPSGASNTSNSKTRMRWTPELHERFVDAVNLLGGSEKATPKGVLKLMKADNLTIYHVKSHLQKYRTARYRPELSEGSSEKKAASKEDIPSIDLKGGNFDLTEALRLQLELQKRLHEQLEIQRSLQLRIEEQGKCLQMMLEQQCIPGTDKAVDASTSAEGTKPSSDLPESSAVKDVPENSQNGIAKQTGMRIH
notes: Transcription factor
Regarding B1, the binding result was “no binding”.
